The target in the test is thrombospondin-1 (TSP1), endogenous in human dermal fibroblasts (human (endogenous in HDF)) (UniProt P07996). Briefly: proximity ligation; Duolink in situ proximity ligation in human dermal fibroblasts (HDF), antibodies to CCN2 and TSP1 (C9); fluorescent area per cell against single antibody stainings.

By UniProt entry, the sequences of proteins in these tests, tags left out. Residues count along the entry.
UniProt P07996, residues 19-1170: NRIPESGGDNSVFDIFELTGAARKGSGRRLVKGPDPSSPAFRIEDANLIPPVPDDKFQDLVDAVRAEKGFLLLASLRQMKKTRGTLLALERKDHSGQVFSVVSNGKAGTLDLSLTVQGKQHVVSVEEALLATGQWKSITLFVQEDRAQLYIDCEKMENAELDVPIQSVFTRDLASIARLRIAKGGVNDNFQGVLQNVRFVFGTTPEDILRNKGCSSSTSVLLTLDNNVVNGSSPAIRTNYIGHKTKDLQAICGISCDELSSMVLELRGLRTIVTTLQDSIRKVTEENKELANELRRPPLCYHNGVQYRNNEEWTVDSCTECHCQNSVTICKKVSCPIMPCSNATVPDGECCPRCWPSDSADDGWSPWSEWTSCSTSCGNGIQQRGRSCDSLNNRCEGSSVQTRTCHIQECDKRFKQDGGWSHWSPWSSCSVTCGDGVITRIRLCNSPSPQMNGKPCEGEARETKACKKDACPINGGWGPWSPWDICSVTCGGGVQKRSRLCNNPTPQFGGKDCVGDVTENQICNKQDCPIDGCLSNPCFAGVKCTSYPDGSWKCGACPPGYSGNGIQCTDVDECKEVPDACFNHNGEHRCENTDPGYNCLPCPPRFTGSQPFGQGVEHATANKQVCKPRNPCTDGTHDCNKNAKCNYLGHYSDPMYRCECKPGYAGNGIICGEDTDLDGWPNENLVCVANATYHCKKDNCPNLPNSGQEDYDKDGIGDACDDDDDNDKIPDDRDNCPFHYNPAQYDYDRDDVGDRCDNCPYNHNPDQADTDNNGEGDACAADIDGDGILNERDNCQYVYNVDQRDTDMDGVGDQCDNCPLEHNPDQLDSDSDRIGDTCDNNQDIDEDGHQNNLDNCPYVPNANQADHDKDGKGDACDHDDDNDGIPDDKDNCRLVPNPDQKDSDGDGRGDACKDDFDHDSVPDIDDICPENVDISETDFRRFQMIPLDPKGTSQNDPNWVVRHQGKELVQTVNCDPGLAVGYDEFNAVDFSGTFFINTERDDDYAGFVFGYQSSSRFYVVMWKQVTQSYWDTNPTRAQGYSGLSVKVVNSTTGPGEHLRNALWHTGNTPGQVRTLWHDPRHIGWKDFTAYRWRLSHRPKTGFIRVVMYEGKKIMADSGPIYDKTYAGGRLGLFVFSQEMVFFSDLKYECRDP
UniProt P29279, residues 27-349: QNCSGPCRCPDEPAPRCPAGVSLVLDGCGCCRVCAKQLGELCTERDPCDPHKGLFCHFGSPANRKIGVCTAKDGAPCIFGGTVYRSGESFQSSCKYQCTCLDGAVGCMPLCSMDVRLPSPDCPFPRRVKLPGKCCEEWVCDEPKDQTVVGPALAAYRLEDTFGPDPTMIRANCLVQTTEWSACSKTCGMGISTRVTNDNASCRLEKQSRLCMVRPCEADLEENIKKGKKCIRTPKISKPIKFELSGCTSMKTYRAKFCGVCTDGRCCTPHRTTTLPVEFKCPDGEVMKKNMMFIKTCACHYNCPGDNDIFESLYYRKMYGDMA

Results are given in words; binding and its absence hold for the method and conditions named. In cells and extracts the contact can be indirect. Some results given as binding are weak or reduced against the parent protein; the word gives no strength.

On to “cell communication network 2 (CCN2), endogenous in human dermal fibroblasts (from UniProt P29279 27-349)”, for which the binding entry is “binds”.

The record behind these values is paper PMC8977143.
